Numbering of substitutions follows the chain as printed. For part of these data: No signal at the amounts used counts as a negative. Protein sequences can lack the tags named with them. For part of these data: Weaker means in comparison with the reference protein, sequence or condition of that experiment. For part of these data: For at least one entry, the source does not settle the construct or the ends of the probe. For part of these data: At least one verdict rests on a figure or table, not on a statement of the authors.
Tests used:
Test in all cases: EMSA
[1] = target: T1, RuvA wild type (Escherichia coli) (UniProt P0A809); settings: 5 mM EDTA; EMSA with ~4-5 ng labelled DNA; 5 mM EDTA (gel 0.5x TBE) or 3 mM MgCl2 without EDTA (gel 0.5x TB + 200 uM MgCl2); recombinant protein; residues …; label: 5' IRD700 on S24 (IT.01); folded or branched DNA
T1 sequence (looked up): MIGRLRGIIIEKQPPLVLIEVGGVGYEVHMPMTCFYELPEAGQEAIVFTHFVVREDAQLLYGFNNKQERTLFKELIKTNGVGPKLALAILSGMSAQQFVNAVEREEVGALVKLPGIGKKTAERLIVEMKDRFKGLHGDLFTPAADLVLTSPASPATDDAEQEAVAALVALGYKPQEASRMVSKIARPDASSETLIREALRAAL

[2] = target: T2, RuvAz3 H29R,K129E,F140S (Escherichia coli) (UniProt P0A809); settings: EMSA with ~4-5 ng labelled DNA, 5 mM EDTA (gel 0.5x TBE) or 3 mM MgCl2 without EDTA (gel 0.5x TB + 200 uM MgCl2), recombinant protein, residues 1-203, label: 5' IRD700 on S24 (IT.01), folded or branched DNA
T2 sequence (looked up): T1 sequence (looked up) with H29R, K129E, F140S

[3] = target: T3, RuvAz87 N79D,N100D (Escherichia coli) (UniProt P0A809); settings: EMSA with ~4-5 ng labelled DNA, 5 mM EDTA (gel 0.5x TBE) or 3 mM MgCl2 without EDTA (gel 0.5x TB + 200 uM MgCl2), recombinant protein, residues 1-203, label: 5' IRD700 on S24 (IT.01), folded or branched DNA
T3 sequence (looked up): T1 sequence (looked up) with N79D, N100D

[4] = EDTA, slightly lower binding, complex I only

GACGCTGCCGAATTCTACCAGTGCCTTGCTAGGACATCTTTGCCCACCTGCAGGTTCACCC / ATGGATAGTCGGATCCTCTAGACAGCTCCATGTAGCAAGGCACTGGTAGAATTCGGCAGCGT / TGGGTGAACCTGCAGGTGGGCAAAGATGTCC / CATGGAGCTGTCTAGAGGATCCGACTATCGA [F2 (fork, three double-stranded arms)]
binding result [1]: binds

GACGCTGCCGAATTCTACCAGTGCCTTGCTAGGACATCTTTGCCCACCTGCAGGTTCACCC / ATGGATAGTCGGATCCTCTAGACAGCTCCATGTAGCAAGGCACTGGTAGAATTCGGCAGCGT / TGGGTGAACCTGCAGGTGGGCAAAGATGTCC [F1 (fork, one arm single-stranded)]
binding result [1]: binds

GACGCTGCCGAATTCTACCAGTGCCTTGCTAGGACATCTTTGCCCACCTGCAGGTTCACCC / TGGGTGAACCTGCAGGTGGGCAAAGATGTCCTAGCAATGTAATCGTCAAGCTTTATGCCGTT / CAACGGCATAAAGCTTGACGATTACATTGCTAGGACATGCTGTCTAGAGGATCCGACTATCGA / ATCGATAGTCGGATCCTCTAGACAGCATGTCCTAGCAAGGCACTGGTAGAATTCGGCAGCGT [X12 (synthetic Holliday junction)]
binding result ([2]; 3 mM Mg2+, partially unable to shift): binds more weakly
binding result [2, 4]: binds more weakly
binding result ([3]; 3 mM Mg2+, totally unable to shift): no binding
binding result [3, 4]: binds more weakly
